Data on 44 molecules can be found in the supplement of paper PMC11237882.

The other results are listed elsewhere or left out. Values are worked out from sequencing counts and are noisy.

To fix the notation:
T1: Homer1 EVH1 domain
T1 chain: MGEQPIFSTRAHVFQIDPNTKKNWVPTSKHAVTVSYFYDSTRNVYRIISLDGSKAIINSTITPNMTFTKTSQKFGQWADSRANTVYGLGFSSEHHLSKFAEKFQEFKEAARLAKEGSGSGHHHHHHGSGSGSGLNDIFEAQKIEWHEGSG

B1: unnamed (peptide)
chain: MFATFAQIQQKSILVWLFSRLYLYSFISLFIYMILS
B2: unnamed (peptide)
chain: ASGVGFILGPVVGGYPTELEDGFYLTAFICFLVFIL
B3: unnamed (peptide)
chain: MTPPERLFLPRVCGTTLHLLLLGLLLVLLPGAQGLP
B4: unnamed (peptide)
chain: SAMNPVIYTLASKEMRRAFFRLVCNCLVRGRGARAS
B5: unnamed (peptide)
chain: PATTPMPSSSFLPEANLPPPLNWQYNYPSTASQTNR
B6: unnamed (peptide)
chain: LFPPAFRRLFEFFVLLKALFVLFVLAYIHIVFSRSP
B7: unnamed (peptide)
chain: MAREDSVKCLRCLLSALNLLFWLMSISVLAVSAWMR
B8: unnamed (peptide)
chain: GEKFGIQFPFDLDVKIKALMLGATFLIEYMYFELWP
B9: unnamed (peptide)
chain: VWPLNLLRPRGGPGYVDVCGLFLLQMATILGMVPAW
B10: unnamed (peptide)
chain: LGGLVICSLLTLIVIFYYLGLLCGVCGYDRHATPTT
B11: unnamed (peptide)
chain: TITPFRKTMSTASAYTAGLTGILGLGIAAPNLAFSQ
B12: unnamed (peptide)
chain: PFYPGYTNYGSFGHLHGHPGPGPGPTTGPGSHFNGL
B13: unnamed (peptide)
chain: MHGDNLPCASLPFLLAVCFMGSLITRLLSLGTVHIY
B14: unnamed (peptide)
chain: EAEAGWIEGAAILLSVICVVLVTAFNDWSKEKQFRG
B15: unnamed (peptide)
chain: CVLGFIACSVFLRMSLEPKVVLLTVALVAYLVLFNL
B16: unnamed (peptide)
chain: MKVISLLILVGFIGEFQSFSSASSPVNCQWDFYAPW
B17: unnamed (peptide)
chain: LSTRPGYLWVVWIYRNLIGSVHFFFILTLIVLIITY
B18: unnamed (peptide)
chain: KQQTHVRKHQFDHGELVYHALQLLAYTALGILIMRL
B19: unnamed (peptide)
chain: IDPVVLVLMVGVVMFTLGFAGCVGALRENICLLNFF
B20: unnamed (peptide)
chain: TALLIFTGAFLLGYVAFRGSCQACGDSVLVVSEDVD
B21: unnamed (peptide)
chain: GICIVFGFIILLLLVLRRRRDSLSLSTQRTQGPESA
B22: unnamed (peptide)
chain: ALSCLLVLLFVDEPKLNTSRLHRVLRNLCYHAQTRH
B23: unnamed (peptide)
chain: MATGLQVPLPWLATGLLLLLSVQPWAESGKVLVVPS
B24: unnamed (peptide)
chain: CITALLGCFLLILLSYAFIVAAILKIPSAEGRNKAF
B25: unnamed (peptide)
chain: IIEDNHLSRISPPTFYGLNSLILLVLMNNVLTRLPD
B26: unnamed (peptide)
chain: MTPNSTGEVPSPIPKGALGLSLALASLIITANLLLA
B27: unnamed (peptide)
chain: FAAVVAWCTLIPLSCFPNNMPGSTRIKARKRKQLHF
B28: unnamed (peptide)
chain: ICQLNCLLLLVSCVVILYSLKTHSLEARHEALSTCV
B29: unnamed (peptide)
chain: YVKTGSVPSLAAWLLFGSLAGLGAYQLYQDPRNVWG
B30: unnamed (peptide)
chain: KIQALCFGVLGVLFTAVSLSFMFANWATSQSRMSGH
B31: unnamed (peptide)
chain: HWFSIINSVVVVFFLSGILSMIIIRTLRKDIANYNK
B32: unnamed (peptide)
chain: FDFMEKATLLIYTKTLLLPVVMVITCFIFKKTVGDI
B33: unnamed (peptide)
chain: SQGYPSPLGGSEHASSPVPASGPSSGPQMSSGPGGA
B34: unnamed (peptide)
chain: LGPVPILHIKSQLWLLVLILVVSGLSAGMSIIPTFP
B35: unnamed (peptide)
chain: NYTGKLNISADKENSIKLTSVVFILICCFIILENIF
B36: unnamed (peptide)
chain: MAAAAIPALLLCLPLLFLLFGWSRARRDDPHSLCYD
B37: unnamed (peptide)
chain: VTPIIVWSIINFFERLCLTWMFFFMMCVAERTYKQR
B38: unnamed (peptide)
chain: PWLHFVIAFPRSYKVFIILWTVYLWMSLLKTILWSR
B39: unnamed (peptide)
chain: SFQQWYHLPCRHILALLHTSQQPVGEAMVCRRWQKK
B40: unnamed (peptide)
chain: LHSSTLWALFVVNLYMFSNCLIVYVLYLQDKTVQFW
B41: unnamed (peptide)
chain: VLGWNCLAERAACSVVRPLARSHVALLSAAFFMVFG
B42: unnamed (peptide)
chain: ASPSEFSPPGGPVPLSVLILSLLVLFFSAVFVAAGP
B43: unnamed (peptide)
chain: MWCIVLFSLLAWVYAEPTMYGEILSPNYPQAYPSEV
B44: unnamed (peptide)
chain: MALIRKTFYFLFAMFFILVQLPSGCQAGLDFSQPFP

This test has as its target T1, Homer1 EVH1 domain. The test is described as follows: enrichment score (AUC of log2 frequency ratio across FACS sorting rounds) (log2 AUC); higher = stronger enrichment for Homer1 EVH1 binding.
On to B1, for which the enrichment score was -0.524.

As to B2, the enrichment score was found to be 2.24. As for B3, the enrichment score stood at 3.6. As for B4, the enrichment score amounted to 0.274. For the molecule B5, the enrichment score is 4.59.

B6: the enrichment score came to 1.77.

B7: the enrichment score was determined as 2.5.

As to B8, the enrichment score is 0.611.

On to B9, for which the enrichment score amounted to 1.02. Turning to B10, the enrichment score stood at 3.21. As for B11, the figure is 2.01; as for B12, -0.516; as for B13, 3.4. As for B14, the figure is 4.52; as for B15, 0.442; as for B16, -0.317. For the molecule B17, the enrichment score was -1.49. As for B18, the figure is 2.13; as for B19, 0.322; as for B20, 4.25. As for B21, the figure is 1.93.

On to B22, for which the enrichment score came out at 0.778. B23: the enrichment score was found to be 3.51.

On to B24, for which the enrichment score was determined as 3.79. On to B25, for which the enrichment score turned out to be 1.37. As for B26, the figure is 3.8; as for B27, 1.17. As for B28, the figure is -0.66. As for B29, the figure is 1.39; as for B30, 2.34. In the case of B31, the enrichment score was determined as 3.37. As for B32, the figure is -0.45; as for B33, -0.811. For the molecule B34, the enrichment score amounted to 1.03.

On to B35, for which the enrichment score was 0.566. As for B36, the figure is 3.34; as for B37, 1.06. As for B38, the figure is 1.69. In the case of B39, the enrichment score amounted to 0.601. As for B40, the figure is -0.0859; as for B41, 2.31; as for B42, 2.95. Consider B43, for which the enrichment score is 2.74. With B44, the enrichment score was -1.99.
